Experiment: general procedure: Fmoc solid-phase peptide synthesis; CTC resin
Conditions: whole synthesis

Substance: Cyclo[Phe-{4-(OCO—NH—CH2—CH2—NH2) Pro}-Phg-DTrp-Lys-Tyr(Bzl)]
- final purity (method not given): 99.9%
